# The list shows a part of the results. Many values rest on one well or one pass, so single values are uncertain.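 Imaging used 1,536-well plates; nuclei positive for cleaved PARP by antibody were divided by total DNA-stained nuclei to yield the apoptosis fraction. Doses for screening kept most cells viable, and cell lines differ markedly in resting and induced cleaved-PARP levels.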
# System: 501Mel
# Experiment: cleaved PARP positive nuclei fraction relative to DMSO control; melanoma cells; higher = more apoptosis
# Settings: library dose: low library concentration; 72 h
row,SMILES,cleaved PARP positive nuclei fraction [%]
1,"Cc1cc(Nc2cc(N3CCN(C)CC3)nc(Sc3ccc(NC(=O)C4CC4)cc3)n2)n[nH]1 [Tozasertib] + Cc1ccc(NC(=O)c2cccc(N(C)C)c2)cc1NC(=O)c1ccc(O)cc1 [ZM336372] (first compound 0.006 µM, partner dose 2 µM)",108
2,"CC[C@]1(O)C[C@H]2CN(CCc3c([nH]c4ccccc34)[C@@](C(=O)OC)(c3cc4c(cc3OC)N(C=O)[C@H]3[C@@](O)(C(=O)OC)[C@H](OC(C)=O)[C@]5(CC)C=CCN6CC[C@]43[C@@H]65)C2)C1 [vincristine] + CC1(C)NC(=O)N(c2ccc([N+](=O)[O-])c(C(F)(F)F)c2)C1=O [nilutamide] (first compound 0.0001 µM, partner dose 1 µM)",99.8
3,"N#CC[C@H](C1CCCC1)n1cc(-c2ncnc3[nH]ccc23)cn1 [ruxolitinib] + CO[C@@H]1[C@H](N(C)C(=O)c2ccccc2)C[C@H]2O[C@]1(C)n1c3ccccc3c3c4c(c5c6ccccc6n2c5c31)C(=O)NC4 [Midostaurin] (first compound 1 µM, partner dose 0.08 µM)",32.3
4,"CCCCCCCCCCCCCCCCCCOP(=O)([O-])OC1CC[N+](C)(C)CC1 [Perifosine] + COc1cc2c(Oc3ccc4[nH]c(C)cc4c3F)ncnc2cc1OCCCN1CCCC1 [cediranib] (first compound 0.4 µM, partner dose 0.4 µM)",126
5,"N#CC[C@H](C1CCCC1)n1cc(-c2ncnc3[nH]ccc23)cn1 [ruxolitinib] + COc1cc2c(Oc3ccc4[nH]c(C)cc4c3F)ncnc2cc1OCCCN1CCCC1 [cediranib] (first compound 1 µM, partner dose 0.4 µM)",71.8
6,"O=C(/C=C/c1cccnc1)NCCCCC1CCN(C(=O)c2ccccc2)CC1 + O=C(O)c1ccc(-c2c[nH]c3ncc(-c4ccccc4)cc23)cc1C1CCCC1 [GSK650394] (first compound 0.01 µM, partner dose 0.16 µM)",64
7,"Cc1cc(Nc2cc(N3CCN(C)CC3)nc(Sc3ccc(NC(=O)C4CC4)cc3)n2)n[nH]1 [Tozasertib] + NCC(=O)Nc1ccc(-n2nc(C(F)(F)F)cc2-c2ccc3c(ccc4ccccc43)c2)cc1 [OSU03012] (first compound 0.006 µM, partner dose 1 µM)",159
8,"Cc1cn(-c2cc(NC(=O)c3ccc(C)c(Nc4nccc(-c5cccnc5)n4)c3)cc(C(F)(F)F)c2)cn1 [nilotinib] + CO[C@@H]1[C@H](N(C)C(=O)c2ccccc2)C[C@H]2O[C@]1(C)n1c3ccccc3c3c4c(c5c6ccccc6n2c5c31)C(=O)NC4 [Midostaurin] (first compound 0.2 µM, partner dose 0.08 µM)",88.2
9,"Cc1ccc(Nc2nccc(N(C)c3ccc4c(C)n(C)nc4c3)n2)cc1S(N)(=O)=O [Pazopanib] + CN(NC(=O)CC(=O)NN(C)C(=S)c1ccccc1)C(=S)c1ccccc1 [STA4783] (first compound 0.4 µM, partner dose 0.006 µM)",189
10,"COc1cc([C@@H]2c3cc4c(cc3[C@@H](O[C@@H]3O[C@@H]5CO[C@@H](C)O[C@H]5[C@H](O)[C@H]3O)[C@H]3COC(=O)[C@H]23)OCO4)cc(OC)c1O [etoposide] + Cc1ccc(NC(=O)c2cccc(N(C)C)c2)cc1NC(=O)c1ccc(O)cc1 [ZM336372] (first compound 0.02 µM, partner dose 2 µM)",356
11,"O=C(/C=C/c1cccnc1)NCCCCC1CCN(C(=O)c2ccccc2)CC1 + CN(NC(=O)CC(=O)NN(C)C(=S)c1ccccc1)C(=S)c1ccccc1 [STA4783] (first compound 0.01 µM, partner dose 0.006 µM)",643

# In a second layout: results already given
row	SMILES	cleaved PARP positive nuclei fraction [%]
4	CCCCCCCCCCCCCCCCCCOP(=O)([O-])OC1CC[N+](C)(C)CC1 [Perifosine] + COc1cc2c(Oc3ccc4[nH]c(C)cc4c3F)ncnc2cc1OCCCN1CCCC1 [cediranib] (first compound 0.4 µM, partner dose 0.4 µM)	126
11	O=C(/C=C/c1cccnc1)NCCCCC1CCN(C(=O)c2ccccc2)CC1 + CN(NC(=O)CC(=O)NN(C)C(=S)c1ccccc1)C(=S)c1ccccc1 [STA4783] (first compound 0.01 µM, partner dose 0.006 µM)	643

# System: A101D
# Experiment: as above
# Settings: library dose: low library concentration; 72 h
row,SMILES,cleaved PARP positive nuclei fraction [%]
1,"O=c1[nH]nc(Sc2ncc([N+](=O)[O-])s2)n1-c1ccc2c(c1)OCCO2 + COc1cc2c(Oc3ccc4[nH]c(C)cc4c3F)ncnc2cc1OCCCN1CCCC1 [cediranib] (first compound 0.2 µM, partner dose 0.4 µM)",196
2,"Cc1cc(Nc2cc(N3CCN(C)CC3)nc(Sc3ccc(NC(=O)C4CC4)cc3)n2)n[nH]1 [Tozasertib] + NC(=O)Nc1cc(-c2cccc(F)c2)sc1C(=O)N[C@H]1CCCNC1 [AZD7762] (first compound 0.006 µM, partner dose 0.02 µM)",94.2
3,"Cc1cn(-c2cc(NC(=O)c3ccc(C)c(Nc4nccc(-c5cccnc5)n4)c3)cc(C(F)(F)F)c2)cn1 [nilotinib] + O=C(Nc1cccc(Cl)c1)Nc1ncc(CCNc2ncnc3ccsc23)s1 [SNS314] (first compound 0.2 µM, partner dose 0.0008 µM)",162
4,"CCCCCCCCCCCCCCCCCCOP(=O)([O-])OC1CC[N+](C)(C)CC1 [Perifosine] + CC(C)(C)c1cnc(CSc2cnc(NC(=O)C3CCNCC3)s2)o1 [SNS-032] (first compound 0.4 µM, partner dose 0.01 µM)",156
5,"O=C(Nc1cc(C(F)(F)F)cc(C(F)(F)F)c1)c1cc(Cl)ccc1O + NCC(=O)Nc1ccc(-n2nc(C(F)(F)F)cc2-c2ccc3c(ccc4ccccc43)c2)cc1 [OSU03012] (first compound 0.016 µM, partner dose 1 µM)",93.9
6,"CCCCCCCCCCCCCCCCCCOP(=O)([O-])OC1CC[N+](C)(C)CC1 [Perifosine] + O=C(O)c1ccc(-c2c[nH]c3ncc(-c4ccccc4)cc23)cc1C1CCCC1 [GSK650394] (first compound 0.4 µM, partner dose 0.16 µM)",38.3
7,"O=C(Nc1cc(C(F)(F)F)cc(C(F)(F)F)c1)c1cc(Cl)ccc1O + C[C@@H]1CCN(C(=O)CC#N)C[C@@H]1N(C)c1ncnc2[nH]ccc12 [CP690550] (first compound 0.016 µM, partner dose 1 µM)",91.1
8,"CC[C@]1(O)C[C@H]2CN(CCc3c([nH]c4ccccc34)[C@@](C(=O)OC)(c3cc4c(cc3OC)N(C=O)[C@H]3[C@@](O)(C(=O)OC)[C@H](OC(C)=O)[C@]5(CC)C=CCN6CC[C@]43[C@@H]65)C2)C1 [vincristine] + CO[C@@H]1[C@H](N(C)C(=O)c2ccccc2)C[C@H]2O[C@]1(C)n1c3ccccc3c3c4c(c5c6ccccc6n2c5c31)C(=O)NC4 [Midostaurin] (first compound 0.0001 µM, partner dose 0.08 µM)",107
9,"COc1cc([C@@H]2c3cc4c(cc3[C@@H](O[C@@H]3O[C@@H]5CO[C@@H](C)O[C@H]5[C@H](O)[C@H]3O)[C@H]3COC(=O)[C@H]23)OCO4)cc(OC)c1O [etoposide] + OCCn1cc(-c2cnc3nnn(Cc4ccc5ncccc5c4)c3n2)cn1 [PF04217903] (first compound 0.02 µM, partner dose 1 µM)",77.4
10,"CCCCCCCCCCCCCCCCCCOP(=O)([O-])OC1CC[N+](C)(C)CC1 [Perifosine] + C[C@@H]1CCN(C(=O)CC#N)C[C@@H]1N(C)c1ncnc2[nH]ccc12 [CP690550] (first compound 0.4 µM, partner dose 1 µM)",97.8
11,"O=C(/C=C/c1cccnc1)NCCCCC1CCN(C(=O)c2ccccc2)CC1 + Cc1ccc(NC(=O)c2cccc(N(C)C)c2)cc1NC(=O)c1ccc(O)cc1 [ZM336372] (first compound 0.01 µM, partner dose 2 µM)",184
12,"Cc1ccc(Nc2nccc(N(C)c3ccc4c(C)n(C)nc4c3)n2)cc1S(N)(=O)=O [Pazopanib] + COc1cc(Nc2ncc(F)c(Nc3ccc4c(n3)NC(=O)C(C)(C)O4)n2)cc(OC)c1OC [Tamatinib] (first compound 0.4 µM, partner dose 0.4 µM)",64.4
13,"N#CC[C@H](C1CCCC1)n1cc(-c2ncnc3[nH]ccc23)cn1 [ruxolitinib] + COc1cc(Nc2ncc(F)c(Nc3ccc4c(n3)NC(=O)C(C)(C)O4)n2)cc(OC)c1OC [Tamatinib] (first compound 1 µM, partner dose 0.4 µM)",366
14,"COc1cc([C@@H]2c3cc4c(cc3[C@@H](O[C@@H]3O[C@@H]5CO[C@@H](C)O[C@H]5[C@H](O)[C@H]3O)[C@H]3COC(=O)[C@H]23)OCO4)cc(OC)c1O [etoposide] + CN(NC(=O)CC(=O)NN(C)C(=S)c1ccccc1)C(=S)c1ccccc1 [STA4783] (first compound 0.02 µM, partner dose 0.006 µM)",24.1
15,"O=C(Nc1cc(C(F)(F)F)cc(C(F)(F)F)c1)c1cc(Cl)ccc1O + O=C(Nc1cccc(Cl)c1)Nc1ncc(CCNc2ncnc3ccsc23)s1 [SNS314] (first compound 0.016 µM, partner dose 0.0008 µM)",296
16,"Cc1cn(-c2cc(NC(=O)c3ccc(C)c(Nc4nccc(-c5cccnc5)n4)c3)cc(C(F)(F)F)c2)cn1 [nilotinib] + NC(=O)Nc1cc(-c2cccc(F)c2)sc1C(=O)N[C@H]1CCCNC1 [AZD7762] (first compound 0.2 µM, partner dose 0.02 µM)",99.4
17,"Cc1cn(-c2cc(NC(=O)c3ccc(C)c(Nc4nccc(-c5cccnc5)n4)c3)cc(C(F)(F)F)c2)cn1 [nilotinib] + O=C(O)c1ccc(-c2c[nH]c3ncc(-c4ccccc4)cc23)cc1C1CCCC1 [GSK650394] (first compound 0.2 µM, partner dose 0.16 µM)",161
